Reference: paper PMC8639500, “SSTP1, a Host Defense Peptide, Exploits the Immunomodulatory IL6 Pathway to Induce Apoptosis in Cancer Cells” (Frontiers in Immunology, 2021)

T1: SSTP1 (Temporin 1IDau1), biotin-labelled (Indosylvirana aurantiaca)
T1 sequence (peptide, biotin (labelled with D-Biotin Succinimidyl ester; position not stated)): FLPLLISALTSLFPKLGK


How the values were obtained:
[1] = biological target: T1, SSTP1 (Temporin 1IDau1), biotin-labelled (Indosylvirana aurantiaca); assay: pull-down; biotin-labelled peptide incubated with HSC-4 cell lysate (1 mg protein) for 1 hour at 4°C, then overnight with streptavidin Dynabeads; buffer 0.025 M Tris, 0.15 M NaCl, 0.001 M EDTA, 0.5% NP40, 0.5% Triton X 100, 5% glycerol, pH 7.4; western blot for IL6Rα; only the target purified
[2] = biological target: IL6Rα (human (endogenous in HSC-4)); assay: FRET or BRET; HSC-4 cells treated with biotin-labelled SSTP1 (10 µM) for 30 minutes, washed, fixed and stained for IL6Rα; streptavidin-Alexa Fluor-488 and anti-mouse Alexa Fluor-555 as FRET pair; only the binder purified

| Molecule | binding [1] | binding [2] |
| --- | --- | --- |
| IL6Rα (human (endogenous in HSC-4)) (receptor) | binds |  |
| FLPLLISALTSLFPKLGK (biotin (labelled with D-Biotin Succinimidyl ester; position not stated)) [SSTP1 (Temporin 1IDau1), biotin-labelled] |  | binds |

Results are given in words; binding and its absence hold for the method and conditions named. Binding seen in cells or lysates may run through a third protein. Binding calls can cover weak binding; strength is not graded here.
